The record followed here is PubChem BioAssay AID1347426 (Functional Genomics Laboratory (NCATS/FGL), 2020).

Among all 31,000 sequences or so, about 1,400 (4.5%) were called active.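 How the source made its calls: active means median seed-adjusted z-score above 1 or below -1; inactive means the rest.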 The list shows a part of the results.

A short description of this assay: Novel Modifiers of Survival Motor Neuron (SMN) Protein: Gene Identification via Genome-wide siRNA Screen.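 Further: luminescence tracks full-length SMN protein made from the SMN2 reporter.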 The note with it: HEK293T SMN2-luciferase reporter, siRNA knockdown, 72 h; actives lie on both sides. The method, boiled down: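 HEK293T cells stably carrying an SMN2 promoter/splicing cassette–luciferase reporter were reverse-transfected with 1 pmol siRNA per well (druggable-genome library, 3 siRNAs per gene) and grown 72 h at 37 °C. Luminescence, normalized to negative-control siRNA and log10-transformed, was scored as MAD.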
(A reporter such as luciferase makes a cellular process visible.)
Turning to GUUAAAGUCCUUAACAAUATT against DNAJB6, the median seed-adjusted z-score was inactive: -0.251.

Regarding CGGAACAUCUGUUUCCCAATT against USP49, the median seed-adjusted z-score is inactive: 0.549. In the case of CCCACUACCCAGACAUAUATT against PAX7 it was inactive: -0.803; in that of GGUUCCCUGUUUACCCUCATT against FLRT1, inactive: -0.00451; in that of CGAAUGCUCAAGCAACUCATT against CDKL1, inactive: -0.28. In the case of GGCUGGAUAUGUAGGCGAATT against CLPX it was inactive: -0.0436; in that of GGUUGAUACCCACUCAAAATT against VIM, inactive: 0.431; in that of GAAAGACUACGAAUGCAAATT against ZNF331, inactive: 0.415.

As to GGGAUUAUCCGGUUUGUCATT against FPR2, the median seed-adjusted z-score was inactive: -0.166.

Turning to UCUCUGAAGUUAUCUCGGATT against SDS, the median seed-adjusted z-score is inactive: 0.128. Then GAUCACCUCUCUUACUUCATT against NEDD4, with inactive: 0.454; and GCCUUCGAGUUCCUUGUUUTT against COX6B2, with inactive: -0.544; and ACCUUGGUGUUGGACCUCATT against RNF26, with inactive: 0.359. In the case of CCAGAUAAAUCUAUAGCAATT against RCOR1 it was active: -1.13; in that of CCAGUUCUCCGAAAUCCAATT against METTL7B, inactive: 0.223; in that of GCAGUUCCGGGAAAGAUCATT against SELE, inactive: 0.469. Then GAGUUACAGCUGAUCAAAATT against VPS26A, with active: -1.55.

As for CGUCUGGUGUAGUAAUGAUTT against ALAS2, the median seed-adjusted z-score is inactive: -0.142.

As for GAACUCCACCUAGACCACATT against BGN, the median seed-adjusted z-score is inactive: 0.376. On to CCGAGAAAUUACUCCGUUATT against MAGT1, for which the median seed-adjusted z-score was inactive: -0.0855. In the case of CGAGAGUUACUUACAAGAATT against RAN it was active: -3.09; in that of GAUGAUUCCUGGAAAAGUATT against GLA, inactive: -0.494; in that of GAUGAUUUUUGGAGACCUATT against TRPV5, inactive: 0.0879. Then AGACGAUCCCUUCUACUAUTT against FXYD4, with inactive: -0.0447. Then GCAGGGCAUUUAUGGGACATT against KRT79, with inactive: 0.338; and AAGGUACACUGGUCCCAAATT against CDKN1C, with inactive: -0.0497; and CAACCUGGGUCAGAUCACATT against SLC1A6, with inactive: 0.0455. GCUCCUUCAUCGAGAAGUATT against RAP2B: the median seed-adjusted z-score was inactive: -0.22. In the case of CAGCAAAGUUAAUUCAACATT against SRPRB it was inactive: 0.000693. Then GGCUCAAAUUGAACGUGGATT against SMARCA1, with inactive: 0.6. Then GGACAGCUGCACGCUCUUATT against TESK1, with inactive: 0.384; and UGCUCGUGCUCGUUCCAAATT against ING4, with inactive: -0.152; and CACAGUUGUUUAUGACUCATT against AKAP10, with inactive: 0.0689.

Take UGAAGAUUCUGGUGCAGCATT against ASB2: the median seed-adjusted z-score is inactive: -0.825. Then GAGACGGAAUGUUAUCAGATT against IFIT3, with inactive: -0.437; and GCGGUCCAAUGAUACUAAUTT against KCNH1, with inactive: -0.0859; and GGAUCCUCCUGUAGCCUUUTT against CIC, with inactive: 0.756. Then GAAGUGUACCAGAUAUAUUTT against ASPA, with inactive: -0.138; and GCUGCUAUGCCUGACCAUATT against STAMBPL1, with inactive: 0.13; and CGUGCAGGAUAAACUCAAATT against TNPO2, with inactive: 0.0785. In the case of GCAUAUACUAUUUCGGCUATT against HEATR6 it was inactive: 0. As for GGAACUCCACGGUCAUCUUTT against MCHR1, the median seed-adjusted z-score was inactive: -0.42. In the case of GAAGGGCUCUUUCACAGCUTT against ADAMTS13 it was inactive: -0.276; in that of CCAUAACCUUAUUGACGCATT against LRFN4, inactive: -0.076.

Regarding GGAUGUUUUUCUUCGAAAATT against MAGI3, the median seed-adjusted z-score is inactive: 0.202.

Take GCUCAAUGAAAUCAAUUAUTT against CFB: the median seed-adjusted z-score was inactive: 0.132. Then GACUUUUGCAGACAAAUCATT against CAPZB, with inactive: -0.106; and GAAGAUGACAUGUACCGUATT against XPA, with active: 2.03.

As for CAACGGUAAUUAUCAGUCATT against FABP7, the median seed-adjusted z-score is inactive: 0.562. Then CGGUGGACACGGUCAUCUATT against NEURL, with inactive: -0.268.

GUACCAGAAGUAUAAGUUUTT against VBP1: the median seed-adjusted z-score was inactive: 0.317. Then GUAUCUUCUUAGAAGUGGATT against HEMK1, with inactive: 0.101; and GGACAUUUUUGGUGAGAAATT against PKIB, with inactive: 0.147; and GAACUUAGCUAAAUUGACUTT against BCHE, with inactive: 0.117.

As for CGCACUGCAUCAAAAUCCATT against GJD2, the median seed-adjusted z-score was inactive: -0.229. Then GCAACCUCUUUAUCGAUAATT against SLC35A3, with inactive: 0.321; and GAACAAUACAUACUAGCAATT against SGCZ, with inactive: 0.0893; and ACAACUUCCUGGUCGCUGATT against GPR62, with inactive: 0.0306. For UGCUGACAGAUCACCCAUATT against DDAH2, the median seed-adjusted z-score is inactive: -0.301.

On to GACGGAAGAUGACUUUGUATT against RNASE4, for which the median seed-adjusted z-score was inactive: -0.0112.

As to GCUUAUCCAUUGGAACUGUTT against NEK9, the median seed-adjusted z-score is inactive: 0.0698. In the case of CUGCAUGAGUAUGACAUGATT against CPSF4 it was inactive: 0.298. Then GAAUCAAUAUAAUCUAGCATT against UBE2Q2, with inactive: 0.146; and CAACCUUUUCACUAAGGAATT against USP21, with inactive: 0.248. Then GACUUAAUGAGGUCAUAAATT against LHCGR, with inactive: -0.152; and CGACAUGAAUAAGAUCAAUTT against PAPPA, with inactive: -0.0169; and GGCAUUACGUUUCUAGGUATT against AQP6, with inactive: 0.008.

On to GACUGACAAUUGAGUUACATT against TAF7, for which the median seed-adjusted z-score was inactive: -0.593.

Consider CUAUCACCUGGACUGUAUATT against RNF11, for which the median seed-adjusted z-score was inactive: -0.365. Then GGACAAGUAGCAAAGCGAATT against SLC7A14, with inactive: 0.132; and GACCUAUGCAGUUCGAAAATT against SFRS1, with active: -1.66; and CACCAUUGCAAACCAAAUATT against KCNQ5, with inactive: 0.0191.

As to CAACAGCAGUGUCUAUUUUTT against IL22RA2, the median seed-adjusted z-score is inactive: -0.147. Then GGGAACAAUUUACAAGUAATT against ZNF233, with inactive: 0.59; and GGUAGCUCCAGAUAAGGAATT against DYNLRB2, with inactive: 0.534.

As for GCAUGUCUGACAUAAUGUATT against CYP4A11, the median seed-adjusted z-score is inactive: -0.762.

Regarding GGAGCAUUCAUGAUCUAGATT against ZNF25, the median seed-adjusted z-score was inactive: -0.145. Then CUUCACGUGUGUGACCUGCTT against FBLIM1, with inactive: 0.0604; and GAACAUCUCUUCGUACUAATT against CCT6A, with inactive: -0.286. Then ACUCCAUGAUCAAUCCCAUTT against GPR6, with inactive: 0; and GCUUGUUCAUGGACGAGAATT against YARS2, with inactive: 0.0901; and GGCUAGUGAUCGACCGUAATT against FADS1, with inactive: -0.905. In the case of GCUUCGUCCAGGAAGAUAATT against GPR158 it was inactive: 0.198; in that of GCCCGAAAGAGAAAGCGAATT against POU5F1, inactive: 0.0495.

For the sequence GCCUCAACUACCUUCCUGATT against CCL23, the median seed-adjusted z-score is inactive: -0.285. Consider GCUUUUAGACAAUCCUUAATT against ZNF91, for which the median seed-adjusted z-score was inactive: 0.105. Then ACAACAUCAUGAUCCGAGATT against PIK3CD, with inactive: 0.00831; and ACAGAACCCUGACCAUGUATT against STAT5A, with inactive: -0.229. Then GGUUGUGAUGUGGUAGUUATT against MDH2, with inactive: 0.185; and GGACUCGUUUCAUUGCUUUTT against DUSP11, with inactive: -0.0184. Then CAGAAUGUACGGUGAUAUUTT against EXOSC6, with inactive: 0.354; and CAAUGACUGGGCAACAAUATT against DMTF1, with inactive: 0.396. As for GGCUCUUCCUCUGGGUAAATT against LIF, the median seed-adjusted z-score is inactive: 0.273. In the case of GUAUGAUUCUCGAGAUAUUTT against SCML2 it was inactive: -0.538. In the case of CCAUCUUACUCACCAGGAATT against HTR1D it was inactive: -0.155. In the case of GAUUGAUAGAAGACAAUGATT against FYN it was inactive: -0.0476; in that of CAGUGUCAACAAUCAGUGATT against CALCRL, inactive: 0.28. For CCAGUGAUGUAAGUUCUUATT against GCG, the median seed-adjusted z-score was active: -1.18. Then GGGUUACAUCAAUUGCAGATT against PRPS2, with inactive: 0.389; and GGUUUUUGGAUGCAGCAUATT against CARS2, with inactive: 0.

GCAACAAUCUGGGCUAUGATT against LPL: the median seed-adjusted z-score was inactive: 0.389. Then CCUCAUCCCUGUUACAACATT against JAG1, with inactive: -0.32; and UGUUGUCGGUGUUCCCGUUTT against OPRL1, with inactive: -0.9; and GCAAGAAGAUGACCUACCATT against SPI1, with inactive: 0.384. In the case of GGAUGCACCACAUCUAGUATT against RPS6KA3 it was inactive: -0.0233; in that of CCAUUGAUGCAACAGGUAATT against USO1, inactive: 0.21. Then GAGUUAACGUAUCAGAACATT against LRRFIP1, with inactive: -0.181; and ACAAGUUCGGCACAACUUUTT against ALX4, with inactive: -0.121.
